Earlier results, collected in patent EP3907227A1, “TRILOBINE DERIVATIVES AND THEIR USE THEREOF IN THE TREATMENT OF MALARIA” (Institut Pasteur, priority 2020, dated 2021).
At least one structure is not confirmed: it was looked up by name or label, or the drawing left a doubt.

Test system: Parasites
Settings: reference compounds; cited from earlier work

| SMILES | Speed of action, as known for the reference |
| --- | --- |
| C[C@H]1[C@@H](O)O[C@@H]2O[C@@]3(C)CC[C@H]4[C@H](C)CC[C@@H]1[C@@]24OO3 [dihydroartemisinin (DHA), dihydroartemisinin] | the fastest killer described so far |
| CCc1nc(N)nc(N)c1-c1ccc(Cl)cc1 [Pyrimethamine] | known as a slow killer |
